# Results from PubChem BioAssay AID758 (NMMLSC, 2007).
# About 110 (0.058%) of roughly 190,000 compounds were called active. The shares of active, inactive and inconclusive entries below differ from those in the screen.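 The calls were made as follows: active = fluorescent GTP binding to Rab7 beads changed by at least 20 points from the 100% baseline, either direction, mostly lower; inconclusive = compound itself probably fluorescent, or too few beads counted; inactive = the rest.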
# System: Rab7 GTPase wild type (dog), Bodipy-FL-GTP binding
# Experiment: modulators of GTP binding to Rab7, primary screen, biochemical, wildtype, multiplex bead flow cytometry (AID 758);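 also: median green fluorescence of bound Bodipy-FL-GTP per Rab7 bead population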
# Details: GST-Rab7 beads, fluorescent GTP binding, at 10 µM, actives lie on both sides, untreated = 100%, excess cold GTP = 0%
row,SMILES,GTP binding activity (percent of control)
1,CC(C)N1CCN(CC#Cc2ccccc2)CC1CCO (stereo not drawn),inactive: 100%
2,COc1ccc(-c2c3c(nc4sc5c(=O)[nH]c(C)nc5c24)CCC3)cc1,inactive: 87%
3,COc1cc(/C=C/CN2CCN(CCC(C)C)C(CCO)C2)ccc1O (stereo not drawn),inactive: 94%
4,O=C1CCCN1c1ccc(S(=O)(=O)Oc2cccc(Cl)c2)cc1[N+](=O)[O-],inconclusive: 95%
5,CNC(=O)c1cc(C(=O)c2ccccc2C(F)(F)F)c[nH]1,inconclusive: 95%
6,O=S(=O)(c1cccc2cccc(Cl)c12)N1CCCC1,inconclusive: 95%
7,C=CCN(CC=C)S(=O)(=O)c1ccc(C(=O)Nc2sc3c(c2C(N)=O)CCCCC3)cc1,inactive: 103%
8,C=CCn1c(SCc2nnc(-c3ccccc3)o2)nnc1C(O)c1ccccc1 (stereo not drawn),inconclusive: 101%
9,CC(C)[C@H](NC(N)=O)C(=O)Nc1ccc(F)c(Cl)c1,inconclusive: 88%
10,CCOC(=O)c1c2ccc(OCC(=O)N/N=C/c3ccc(C)cc3)cc2n2ccccc12,inconclusive: 93%
11,COc1ccc(OC)c(NC(=O)CSc2nnc(C3CCCCC3)o2)c1,inactive: 95%
12,O=C(NCc1ccccc1F)Nc1ccc([N+](=O)[O-])cc1,inactive: 94%
13,COc1cc(OC)c(/C=N/NC(N)=S)cc1Br,inconclusive: 97%
14,CSc1nnc(-c2cc(Br)ccc2N=Cc2c(C)[nH]n(-c3ccccc3)c2=O)c(=O)[nH]1,inactive: 93%
15,COc1ccc(-c2nc(NC(=O)Cn3cnnn3)sc2C)cc1,inconclusive: 93%
16,CC(C)CCN1CCN(Cc2cnc(N3CCCC3)s2)CC1CCO (stereo not drawn),inactive: 98%
17,CCN(CC)S(=O)(=O)c1cc([N+](=O)[O-])ccc1N=Nc1c(O)[nH]c2ccccc12,inconclusive: 133%
18,CCN(C(=O)CSc1nc2ccccc2c(=O)n1C(C)COC)C1CCS(=O)(=O)C1 (stereo not drawn),inactive: 102%
19,N#C/C(=C/c1ccc(N2CCCCCC2)o1)c1ccc(Cl)cc1,inconclusive: 125%
20,COc1ccccc1CN1C[C@@H]2C[C@@H](c3ccc(C)c(C)c3)N3CCC[C@@]23C1=O,inconclusive: 96%
21,CC1(C)Cc2c(oc3ncn4ncnc4c23)CO1,inconclusive: 106%
22,CN(C)/C=N/c1nc2nccc(-c3cccs3)n2n1,inconclusive: 95%
23,CC(C)(C)C(=O)OCC1OC(n2cnc(C(N)=O)n2)C(O)C1O (stereo not drawn),inactive: 104%
24,CCN(CC)c1ccc(/C=C(\C#N)c2nc(-c3cccs3)c(NC(C)=O)s2)cc1,inconclusive: 151%

# 3 compounds already listed, ordered by molecular weight, ascending:
row,SMILES,GTP binding activity (percent of control)
1,CC(C)N1CCN(CC#Cc2ccccc2)CC1CCO (stereo not drawn),inactive: 100%
5,CNC(=O)c1cc(C(=O)c2ccccc2C(F)(F)F)c[nH]1,inconclusive: 95%
8,C=CCn1c(SCc2nnc(-c3ccccc3)o2)nnc1C(O)c1ccccc1 (stereo not drawn),inconclusive: 101%

# Continued.

row,SMILES,GTP binding activity (percent of control)
1,Cc1csc(NC(=O)c2cc(-c3ccncc3)nc3ccccc23)n1,inconclusive: 98%
2,O=C(/C=C/c1ccccc1)NC1CCCc2ccccc21 (stereo not drawn),inactive: 90%
3,Cc1ccc(C)n1-c1ccc(C(=O)NN=C2CCCC2)cc1,inconclusive: 115%
4,CCc1ccccc1OCC(=O)Nc1nc(-c2cccnc2)cs1,inactive: 95%
5,COC(=O)[C@H](C)NC(=O)Nc1ccc(Oc2ccccc2)cc1,inconclusive: 103%
6,Cc1ccc(C(=O)N(Cc2ccccc2)C(C)(C)C)cc1C,inactive: 99%
7,COc1ccc(C2CC(c3cccs3)=NN2C(=O)CSc2nncs2)cc1OC (stereo not drawn),inconclusive: 91%
8,COC(=O)c1ccc(COC(=O)c2cnccn2)cc1,inactive: 105%
9,CCOC(=O)N1CCN(Cc2cn[nH]c2-c2cc3ccccc3o2)CC1,inconclusive: 65%
10,Cn1c(=S)n(/N=C/c2ccc3c(c2)OCO3)c2ccccc21,inconclusive: 102%
11,COc1ccccc1CN1CCNC(=O)C1CC(=O)NCc1c(C)n[nH]c1C (stereo not drawn),inconclusive: 102%
12,Cc1nnc(SCc2nc3ccccc3s2)n1-c1ccccc1,inconclusive: 104%
13,O=c1[nH]c2ccc(Cl)cc2c(O)c1Cc1ccccc1,inconclusive: 95%
14,COc1ccc(OCCSc2nc(N)cc(N)n2)cc1,inconclusive: 92%
15,Cc1ccc(NC(=O)CN2C(=O)NC3(CCc4ccccc43)C2=O)cc1Cl (stereo not drawn),inconclusive: 102%
16,CCOC(=O)N1CCc2c(sc3nc4n(c(=O)c23)N=C(C)CS4)C1,inactive: 96%
17,COc1ccc(C2=Nn3c(nnc3-c3ccccn3)SC2)cc1OC,inconclusive: 87%
18,CCOc1ccc(-c2cc(C(=O)Nc3ccc4c(c3)OCCO4)c3ccccc3n2)cc1,inconclusive: 94%
19,CN(C(=O)Cn1cccc1C1=NC(c2ccccc2)CO1)c1ccccc1 (stereo not drawn),inactive: 100%
20,Cc1cc(C)n(CCCNC(=O)c2ccc(S(=O)(=O)NCc3ccco3)cc2)n1,inconclusive: 98%
21,CCOc1cc(/C=N/NC(=O)c2cccnc2)ccc1OCC(=O)N(C)C,inactive: 95%
22,CCC(C)N1C(=O)/C(=C/c2c(NCCCOC(C)C)nc3c(C)cccn3c2=O)SC1=S (stereo not drawn),inconclusive: 333%
23,COCCNc1ncnc2nc[nH]c12,inconclusive: 108%
24,CN(Cc1ccc2nonc2c1)Cc1nc(CC2CC2)no1,inactive: 98%

row,SMILES,GTP binding activity (percent of control)
1,COc1ccc(Cl)cc1NC(=O)C/C(C)=N/NC(=O)Cc1ccccc1,inconclusive: 95%
2,CO/N=C(\C(=O)O)c1csc(NN=C(C)C)n1,inactive: 97%
3,CC1Cc2ccccc2N1C(=S)NC(=O)C1(C)CC1(Cl)Cl (stereo not drawn),inconclusive: 97%
4,C/C(=N\NC(=O)c1cccc(N/N=C(\C)c2cc(O)ccc2O)c1)c1cc(O)ccc1O,inconclusive: 90%
5,COC(=O)C(F)(F)Sc1c(C)[nH]c2ccccc12,inconclusive: 103%
6,CC1=Nc2ccccc2/C1=C\c1sc(Nc2ccc(C)cc2)nc1O,inconclusive: 95%
7,CC(C)c1ccc(OCc2ccc(C(=O)NN3CCN(C)CC3)o2)cc1,inactive: 94%
8,COc1cc(/C=N/NC(=O)CCN2CCN(Cc3ccccc3)CC2)cc(OC)c1OC,inactive: 97%
9,COc1cccc(N2CCN(C(=O)CSc3ccc(F)cc3)CC2)c1,inactive: 99%
10,CSCC[C@H](NC(=O)NCc1ccc(F)cc1)C(=O)O,inconclusive: 105%
11,CCOc1ccc(C2=Nn3c(nnc3-c3ccco3)SC2)cc1,inactive: 89%
12,CN(Cc1ccc(-n2cccn2)cc1)Cc1cn(C)nc1-c1ccccc1F,inconclusive: 95%
13,CCNCc1cc(OCC)c(OCC(=O)NCCc2ccccc2)cc1Cl,inconclusive: 106%
14,O=C(/C=C/c1cccc(Oc2ccccc2)c1)N1CCOCC1,inactive: 103%
15,O=C(NCC1CCN(c2ccc(S(=O)(=O)N3CCOCC3)cc2)CC1)c1cccc(Cl)c1,inconclusive: 103%
16,CCC(=O)Nc1cc(C(=O)OCC(=O)c2ccc(Cl)cc2Cl)ccc1C,inconclusive: 100%
17,CC(=O)N1CCc2cc(Br)cc(S(=O)(=O)N3CCN(C(=O)c4ccco4)CC3)c21,inconclusive: 104%
18,C=CCc1ccccc1OCC(O)CN1CCN(C(=O)OCC)CC1 (stereo not drawn),inconclusive: 129%
19,COc1ccc(-n2c(C)cc(/C=C3\SC(=S)N(Cc4ccco4)C3=O)c2C)cc1,inconclusive: 130%
20,C/C=C/c1cc(CN2CCN(c3ccc(OC)cc3)CC2)c(O)c(OC)c1,inactive: 97%
21,CC(C)n1cc(/C=C2\NC(=O)N(c3cccc(Cl)c3)C2=O)c2ccccc21,inconclusive: 101%
22,NC(=O)C(=O)N/N=C/c1c[nH]c2ccc(Br)cc12,inconclusive: 98%
23,CCC(C)/C(C)=N/NC(=O)CNS(=O)(=O)c1ccc([N+](=O)[O-])cc1 (stereo not drawn),inactive: 102%
24,CSc1nc(C)cc(SC(C(C)=O)C(=O)Nc2ccccc2)n1 (stereo not drawn),inconclusive: 96%

row,SMILES,GTP binding activity (percent of control)
1,CCS(=O)(=O)Nc1cccc(C(=O)CC2(O)C(=O)Nc3ccccc32)c1 (stereo not drawn),inconclusive: 101%
2,CCOC(=O)NC(=O)CSc1nnc(C2CC2)n1Cc1ccco1,inactive: 101%
3,COc1ccc2c(c1)CC/C(=C/c1ccncc1)C2=O,inconclusive: 99%
4,O=C(Nc1nc2ccccc2[nH]1)c1ccc(Cl)c(S(=O)(=O)N2CCCC2)c1,inconclusive: 94%
5,Cc1c(N)cccc1-n1cccc1,inconclusive: 102%
6,Fc1ccc(-c2n[nH]c(=S)c3ccccc23)cc1,inactive: 98%
7,Cc1cccc(C(=O)Oc2ccc(/C=N/O)cc2)c1,inconclusive: 99%
8,COc1ccc(-c2cc(C(=O)Oc3ccc([N+](=O)[O-])cc3)c3ccccc3n2)cc1,inconclusive: 93%
9,CC(C)(C)c1ccc(CNc2cc(N3CCOCC3)ccc2[N+](=O)[O-])cc1,inconclusive: 93%
10,CCCCOc1ccc(S(=O)(=O)NNC(=O)c2cc3ccccc3o2)cc1,inconclusive: 92%
11,CCOP(=O)(OCC)C(Nc1ccc(OC)cc1)c1ccco1 (stereo not drawn),inactive: 98%
12,CC(C)Cc1nnc(NC(=O)CCC(=O)N2CCN(S(=O)(=O)c3ccccc3)CC2)s1,inconclusive: 102%
13,COC(=O)CN1C(=O)CC(C)(C)S(=O)c2ccccc21 (stereo not drawn),inconclusive: 102%
14,Cc1ccc(NC(=O)c2ccccc2F)cc1S(=O)(=O)N1CCCCCC1,inconclusive: 91%
15,C=CCNC(=O)C(=O)NCCOc1ccccc1Cl,inactive: 98%
16,COc1ccc(OC)c(N2CC(O)(c3cccs3)[N+]3=C2SCCC3)c1 (stereo not drawn),inactive: 105%
17,Cn1c(N)c(C(=O)COC(=O)CCCOc2ccc(Cl)cc2Cl)c(=O)n(C)c1=O,inconclusive: 88%
18,COc1ccc(N2C(=O)CN=C2Nc2nc(C)cc(C)n2)cc1OC,inconclusive: 104%
19,COc1ccccc1N1CCN(C(=O)c2ccc(C(C)(C)C)cc2)CC1,inconclusive: 105%
20,COc1ccc(OC2C(=O)N(Cc3ccc4c(c3)OCO4)C2c2sccc2C)cc1 (stereo not drawn),inconclusive: 102%
21,CC(=O)N1N=C(c2ccc3nccnc3c2)CC1c1ccccc1 (stereo not drawn),inconclusive: 102%
